From article PMC6300487
No constants are given. Whether binding was seen depends on the method and setting. Binding seen in cells or lysates may run through a third protein. Here binding means that the protein was enriched with, or labelled near, the bait; the list need not be complete. Where a sequence is shown, tags or fusion partners need not be part of it.

Chains of the proteins cited; added tags and fusions are not shown. Residues count along the entry.
UniProt P55786: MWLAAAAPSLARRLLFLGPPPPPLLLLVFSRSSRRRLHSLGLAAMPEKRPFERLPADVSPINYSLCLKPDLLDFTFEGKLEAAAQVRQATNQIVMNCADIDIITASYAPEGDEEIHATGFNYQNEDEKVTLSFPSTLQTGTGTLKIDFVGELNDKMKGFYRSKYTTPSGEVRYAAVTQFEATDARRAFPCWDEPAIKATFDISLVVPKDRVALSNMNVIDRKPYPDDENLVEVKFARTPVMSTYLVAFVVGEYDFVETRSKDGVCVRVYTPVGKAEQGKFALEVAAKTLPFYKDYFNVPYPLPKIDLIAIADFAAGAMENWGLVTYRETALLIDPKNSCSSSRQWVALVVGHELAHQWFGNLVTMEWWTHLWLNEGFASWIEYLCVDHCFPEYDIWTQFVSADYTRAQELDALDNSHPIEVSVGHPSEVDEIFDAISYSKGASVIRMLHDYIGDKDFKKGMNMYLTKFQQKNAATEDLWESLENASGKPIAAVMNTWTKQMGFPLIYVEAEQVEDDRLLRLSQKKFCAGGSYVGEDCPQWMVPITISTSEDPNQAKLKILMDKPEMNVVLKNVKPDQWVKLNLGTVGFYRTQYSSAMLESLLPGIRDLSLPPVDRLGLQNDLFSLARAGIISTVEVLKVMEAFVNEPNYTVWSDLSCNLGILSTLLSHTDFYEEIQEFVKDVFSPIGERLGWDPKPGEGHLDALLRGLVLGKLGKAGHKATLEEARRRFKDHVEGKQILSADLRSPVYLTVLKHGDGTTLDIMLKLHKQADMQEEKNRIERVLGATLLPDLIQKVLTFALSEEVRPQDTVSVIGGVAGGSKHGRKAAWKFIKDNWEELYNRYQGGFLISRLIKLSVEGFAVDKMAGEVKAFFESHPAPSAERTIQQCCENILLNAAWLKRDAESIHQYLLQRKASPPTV
UniProt P51648: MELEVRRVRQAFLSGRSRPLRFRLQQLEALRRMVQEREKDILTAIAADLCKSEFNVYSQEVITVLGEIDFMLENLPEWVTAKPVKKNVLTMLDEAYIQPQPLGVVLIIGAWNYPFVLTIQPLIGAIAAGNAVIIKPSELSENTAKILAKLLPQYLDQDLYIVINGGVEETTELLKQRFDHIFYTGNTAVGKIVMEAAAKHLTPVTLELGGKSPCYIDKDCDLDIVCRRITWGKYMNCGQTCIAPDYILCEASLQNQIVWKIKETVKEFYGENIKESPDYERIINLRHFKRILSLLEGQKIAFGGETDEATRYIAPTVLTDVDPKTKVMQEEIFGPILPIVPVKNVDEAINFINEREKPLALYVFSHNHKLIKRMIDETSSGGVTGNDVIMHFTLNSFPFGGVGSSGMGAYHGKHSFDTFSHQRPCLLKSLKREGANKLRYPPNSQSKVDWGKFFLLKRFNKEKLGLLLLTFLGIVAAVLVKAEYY
UniProt Q06210: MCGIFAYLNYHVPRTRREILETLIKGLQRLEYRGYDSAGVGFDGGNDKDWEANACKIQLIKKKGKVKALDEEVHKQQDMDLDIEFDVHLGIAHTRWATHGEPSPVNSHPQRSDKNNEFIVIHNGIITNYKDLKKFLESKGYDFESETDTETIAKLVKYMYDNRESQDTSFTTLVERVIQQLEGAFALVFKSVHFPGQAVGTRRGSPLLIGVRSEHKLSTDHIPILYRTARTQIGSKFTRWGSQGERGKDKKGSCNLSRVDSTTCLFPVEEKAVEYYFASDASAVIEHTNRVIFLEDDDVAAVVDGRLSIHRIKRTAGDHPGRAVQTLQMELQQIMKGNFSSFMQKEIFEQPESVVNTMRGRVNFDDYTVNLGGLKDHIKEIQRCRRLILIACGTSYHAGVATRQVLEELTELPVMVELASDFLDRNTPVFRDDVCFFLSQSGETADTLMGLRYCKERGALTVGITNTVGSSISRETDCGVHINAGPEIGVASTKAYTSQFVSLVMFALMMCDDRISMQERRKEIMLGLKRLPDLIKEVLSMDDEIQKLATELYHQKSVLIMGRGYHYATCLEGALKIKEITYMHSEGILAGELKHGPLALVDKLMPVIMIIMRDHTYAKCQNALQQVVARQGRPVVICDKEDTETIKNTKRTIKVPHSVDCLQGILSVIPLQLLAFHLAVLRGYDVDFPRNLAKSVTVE
UniProt O14641: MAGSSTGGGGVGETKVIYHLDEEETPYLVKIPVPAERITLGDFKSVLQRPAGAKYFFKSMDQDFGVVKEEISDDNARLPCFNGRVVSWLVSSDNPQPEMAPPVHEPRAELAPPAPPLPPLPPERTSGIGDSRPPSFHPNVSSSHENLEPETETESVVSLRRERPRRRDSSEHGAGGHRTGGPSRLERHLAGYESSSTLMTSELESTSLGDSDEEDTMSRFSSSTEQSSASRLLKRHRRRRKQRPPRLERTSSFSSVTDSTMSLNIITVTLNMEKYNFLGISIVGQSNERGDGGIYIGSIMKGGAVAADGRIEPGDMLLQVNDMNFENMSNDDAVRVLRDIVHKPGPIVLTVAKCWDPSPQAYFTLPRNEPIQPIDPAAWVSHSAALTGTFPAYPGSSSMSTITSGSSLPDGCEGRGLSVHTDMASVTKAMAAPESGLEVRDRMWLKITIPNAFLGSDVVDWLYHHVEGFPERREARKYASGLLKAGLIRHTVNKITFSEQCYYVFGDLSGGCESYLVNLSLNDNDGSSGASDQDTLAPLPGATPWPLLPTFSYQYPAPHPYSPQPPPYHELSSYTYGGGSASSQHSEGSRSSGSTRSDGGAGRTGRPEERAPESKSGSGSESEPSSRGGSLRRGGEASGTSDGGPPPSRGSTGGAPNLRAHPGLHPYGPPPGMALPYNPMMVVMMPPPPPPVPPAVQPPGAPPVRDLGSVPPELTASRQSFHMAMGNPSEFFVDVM
UniProt Q13148: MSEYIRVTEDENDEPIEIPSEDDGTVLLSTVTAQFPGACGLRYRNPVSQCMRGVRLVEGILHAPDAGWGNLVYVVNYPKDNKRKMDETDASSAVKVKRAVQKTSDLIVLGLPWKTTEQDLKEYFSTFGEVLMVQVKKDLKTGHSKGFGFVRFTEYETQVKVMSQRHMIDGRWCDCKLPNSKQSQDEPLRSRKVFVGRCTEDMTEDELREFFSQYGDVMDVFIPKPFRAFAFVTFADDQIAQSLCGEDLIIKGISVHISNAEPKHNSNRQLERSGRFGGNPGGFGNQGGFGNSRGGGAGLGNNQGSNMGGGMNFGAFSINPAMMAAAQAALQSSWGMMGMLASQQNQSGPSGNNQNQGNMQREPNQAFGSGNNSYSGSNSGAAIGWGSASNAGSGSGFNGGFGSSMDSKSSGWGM
UniProt P40939, residues 37-763: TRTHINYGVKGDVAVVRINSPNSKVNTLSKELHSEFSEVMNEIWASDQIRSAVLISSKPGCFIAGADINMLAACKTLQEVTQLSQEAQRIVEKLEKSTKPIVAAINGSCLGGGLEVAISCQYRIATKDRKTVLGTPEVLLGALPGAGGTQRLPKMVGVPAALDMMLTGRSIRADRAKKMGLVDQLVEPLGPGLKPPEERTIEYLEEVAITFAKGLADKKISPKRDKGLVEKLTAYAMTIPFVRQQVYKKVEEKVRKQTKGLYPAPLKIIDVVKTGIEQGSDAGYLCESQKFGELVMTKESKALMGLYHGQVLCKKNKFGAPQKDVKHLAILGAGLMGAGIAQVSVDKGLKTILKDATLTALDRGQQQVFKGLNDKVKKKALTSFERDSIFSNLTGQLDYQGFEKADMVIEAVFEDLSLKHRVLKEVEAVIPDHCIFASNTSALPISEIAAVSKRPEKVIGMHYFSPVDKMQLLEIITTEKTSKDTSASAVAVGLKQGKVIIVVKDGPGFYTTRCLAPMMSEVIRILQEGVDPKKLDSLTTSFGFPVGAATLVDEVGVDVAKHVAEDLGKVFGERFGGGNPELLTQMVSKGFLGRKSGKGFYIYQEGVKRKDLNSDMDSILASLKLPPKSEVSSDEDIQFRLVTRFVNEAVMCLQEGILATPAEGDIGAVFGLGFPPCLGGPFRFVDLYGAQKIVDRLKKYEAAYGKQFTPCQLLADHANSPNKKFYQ
UniProt Q9UPU5: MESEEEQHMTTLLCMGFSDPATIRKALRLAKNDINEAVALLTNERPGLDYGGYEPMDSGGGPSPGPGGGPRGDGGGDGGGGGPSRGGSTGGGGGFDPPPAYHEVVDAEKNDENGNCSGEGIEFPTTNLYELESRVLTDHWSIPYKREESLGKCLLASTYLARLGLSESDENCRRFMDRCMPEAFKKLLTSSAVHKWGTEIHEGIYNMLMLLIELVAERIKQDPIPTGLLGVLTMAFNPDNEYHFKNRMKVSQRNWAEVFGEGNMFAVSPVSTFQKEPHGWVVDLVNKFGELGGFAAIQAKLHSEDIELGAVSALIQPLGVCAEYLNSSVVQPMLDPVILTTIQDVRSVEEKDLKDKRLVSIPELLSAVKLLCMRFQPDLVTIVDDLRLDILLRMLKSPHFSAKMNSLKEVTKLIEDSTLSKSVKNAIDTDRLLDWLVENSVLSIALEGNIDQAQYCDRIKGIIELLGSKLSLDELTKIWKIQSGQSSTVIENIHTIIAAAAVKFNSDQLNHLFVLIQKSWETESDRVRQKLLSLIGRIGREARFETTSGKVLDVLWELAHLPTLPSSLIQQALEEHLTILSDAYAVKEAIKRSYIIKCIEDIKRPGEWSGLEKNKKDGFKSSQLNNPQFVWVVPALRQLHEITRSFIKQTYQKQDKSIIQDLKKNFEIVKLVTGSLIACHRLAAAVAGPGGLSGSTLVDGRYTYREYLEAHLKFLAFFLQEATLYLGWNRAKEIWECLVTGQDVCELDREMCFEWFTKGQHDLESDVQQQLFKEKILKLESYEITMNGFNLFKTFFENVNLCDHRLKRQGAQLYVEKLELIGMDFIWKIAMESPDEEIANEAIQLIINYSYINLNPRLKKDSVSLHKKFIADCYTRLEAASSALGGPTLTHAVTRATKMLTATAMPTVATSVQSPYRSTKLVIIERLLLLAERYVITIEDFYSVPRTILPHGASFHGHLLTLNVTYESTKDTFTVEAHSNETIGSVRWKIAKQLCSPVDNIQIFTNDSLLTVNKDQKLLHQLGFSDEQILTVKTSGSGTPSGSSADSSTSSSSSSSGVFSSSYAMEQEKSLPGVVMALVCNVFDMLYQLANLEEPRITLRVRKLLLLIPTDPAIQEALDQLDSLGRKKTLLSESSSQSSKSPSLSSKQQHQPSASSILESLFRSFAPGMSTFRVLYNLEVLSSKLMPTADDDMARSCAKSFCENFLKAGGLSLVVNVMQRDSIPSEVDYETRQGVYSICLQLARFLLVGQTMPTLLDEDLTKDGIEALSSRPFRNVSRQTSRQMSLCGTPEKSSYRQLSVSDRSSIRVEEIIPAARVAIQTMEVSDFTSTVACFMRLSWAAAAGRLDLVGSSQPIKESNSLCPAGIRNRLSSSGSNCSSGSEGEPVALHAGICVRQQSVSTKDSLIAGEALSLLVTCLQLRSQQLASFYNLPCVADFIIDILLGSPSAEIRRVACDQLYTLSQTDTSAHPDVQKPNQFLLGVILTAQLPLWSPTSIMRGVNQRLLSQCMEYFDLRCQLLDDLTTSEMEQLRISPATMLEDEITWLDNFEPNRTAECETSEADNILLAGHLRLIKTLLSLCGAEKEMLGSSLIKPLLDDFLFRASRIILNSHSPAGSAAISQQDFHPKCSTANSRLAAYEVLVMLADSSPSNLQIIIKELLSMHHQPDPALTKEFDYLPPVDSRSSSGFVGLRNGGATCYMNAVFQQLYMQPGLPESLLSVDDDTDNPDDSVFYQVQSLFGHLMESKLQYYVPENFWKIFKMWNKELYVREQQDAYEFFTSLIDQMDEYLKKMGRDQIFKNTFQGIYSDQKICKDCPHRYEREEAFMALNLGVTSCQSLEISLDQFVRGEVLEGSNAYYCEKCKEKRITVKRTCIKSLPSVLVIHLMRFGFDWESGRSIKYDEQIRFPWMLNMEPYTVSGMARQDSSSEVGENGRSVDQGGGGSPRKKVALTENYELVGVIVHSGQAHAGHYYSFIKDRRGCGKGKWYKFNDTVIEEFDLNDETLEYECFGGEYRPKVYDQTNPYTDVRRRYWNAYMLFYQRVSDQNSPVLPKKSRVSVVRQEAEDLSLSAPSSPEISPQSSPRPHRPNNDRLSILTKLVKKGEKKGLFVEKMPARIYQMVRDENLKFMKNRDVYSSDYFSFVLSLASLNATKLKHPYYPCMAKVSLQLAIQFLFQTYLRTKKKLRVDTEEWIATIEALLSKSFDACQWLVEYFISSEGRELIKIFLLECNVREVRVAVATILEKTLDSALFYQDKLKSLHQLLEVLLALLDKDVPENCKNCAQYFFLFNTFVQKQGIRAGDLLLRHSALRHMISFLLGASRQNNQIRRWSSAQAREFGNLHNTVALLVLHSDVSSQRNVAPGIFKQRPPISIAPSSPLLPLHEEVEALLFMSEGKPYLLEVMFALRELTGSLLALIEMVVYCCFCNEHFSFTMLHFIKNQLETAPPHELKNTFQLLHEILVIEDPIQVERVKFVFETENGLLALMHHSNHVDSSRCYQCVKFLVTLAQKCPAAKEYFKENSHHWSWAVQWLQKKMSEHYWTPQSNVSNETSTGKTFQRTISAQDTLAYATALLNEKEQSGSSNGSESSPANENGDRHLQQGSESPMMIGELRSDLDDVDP

T1: SFB-tagged WWOX (WW domain-containing oxidoreductase) (human) (UniProt Q9NZC7)
T1 sequence: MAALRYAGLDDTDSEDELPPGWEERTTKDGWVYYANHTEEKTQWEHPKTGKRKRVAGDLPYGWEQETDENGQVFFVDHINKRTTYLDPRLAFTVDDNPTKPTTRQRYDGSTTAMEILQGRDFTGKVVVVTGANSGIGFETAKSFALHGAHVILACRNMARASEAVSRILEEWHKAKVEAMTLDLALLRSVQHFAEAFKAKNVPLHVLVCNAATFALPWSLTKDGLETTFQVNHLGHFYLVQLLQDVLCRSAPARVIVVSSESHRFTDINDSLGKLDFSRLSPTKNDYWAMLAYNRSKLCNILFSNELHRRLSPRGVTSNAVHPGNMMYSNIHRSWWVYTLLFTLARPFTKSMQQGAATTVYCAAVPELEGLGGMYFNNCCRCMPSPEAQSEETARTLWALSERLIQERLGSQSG

B1: Histone PARylation Factor 1 (protein, UniProt Q9NWY4 1-346)
chain: MVGGGGKRRPGGEGPQCEKTTDVKKSKFCEADVSSDLRKEVENHYKLSLPEDFYHFWKFCEELDPEKPSDSLSASLGLQLVGPYDILAGKHKTKKKSTGLNFNLHWRFYYDPPEFQTIIIGDNKTQYHMGYFRDSPDEFPVYVGINEAKKNCIIVPNGDNVFAAVKLFLTKKLREITDKKKINLLKNIDEKLTEAARELGYSLEQRTVKMKQRDKKVVTKTFHGAGLVVPVDKNDVGYRELPETDADLKRICKTIVEAASDEERLKAFAPIQEMMTFVQFANDECDYGMGLELGMDLFCYGSHYFHKVAGQLLPLAYNLLKRNLFAEIIEEHLANRSQENIDQLAA
B2: WW domain-binding protein 2 (protein, UniProt Q969T9 1-261)
chain: MALNKNHSEGGGVIVNNTESILMSYDHVELTFNDMKNVPEAFKGTKKGTVYLTPYRVIFLSKGKDAMQSFMMPFYLMKDCEIKQPVFGANYIKGTVKAEAGGGWEGSASYKLTFTAGGAIEFGQRMLQVASQASRGEVPSGAYGYSYMPSGAYVYPPPVANGMYPCPPGYPYPPPPPEFYPGPPMMDGAMGYVQPPPPPYPGPMEPPVSGPDVPSTPAAEAKAAEAAASAYYNPGNPHNVYMPTSQPPPPPYYPPEDKKTQ
B3: Spartin (protein, UniProt Q8N0X7 1-666)
chain: MEQEPQNGEPAEIKIIREAYKKAFLFVNKGLNTDELGQKEEAKNYYKQGIGHLLRGISISSKESEHTGPGWESARQMQQKMKETLQNVRTRLEILEKGLATSLQNDLQEVPKLYPEFPPKDMCEKLPEPQSFSSAPQHAEVNGNTSTPSAGAVAAPASLSLPSQSCPAEAPPAYTPQAAEGHYTVSYGTDSGEFSSVGEEFYRNHSQPPPLETLGLDADELILIPNGVQIFFVNPAGEVSAPSYPGYLRIVRFLDNSLDTVLNRPPGFLQVCDWLYPLVPDRSPVLKCTAGAYMFPDTMLQAAGCFVGVVLSSELPEDDRELFEDLLRQMSDLRLQANWNRAEEENEFQIPGRTRPSSDQLKEASGTDVKQLDQGNKDVRHKGKRGKRAKDTSSEEVNLSHIVPCEPVPEEKPKELPEWSEKVAHNILSGASWVSWGLVKGAEITGKAIQKGASKLRERIQPEEKPVEVSPAVTKGLYIAKQATGGAAKVSQFLVDGVCTVANCVGKELAPHVKKHGSKLVPESLKKDKDGKSPLDGAMVVAASSVQGFSTVWQGLECAAKCIVNNVSAETVQTVRYKYGYNAGEATHHAVDSAVNVGVTAYNINNIGIKAMVKKTATQTGHTLLEDYQIVDNSQRENQEGAANVNVRGEKDEQTKEVKEAKKKDK
B4: Valyl-tRNA synthetase (VARS2) (protein, UniProt Q5ST30 27-1063)
chain: SVSTQSEPHGSPISRRNREAKQKRLREKQATLEAEIAGESKSPAESIKAWRPKELVLYEIPTKPGEKKDVSGPLPPAYSPRYVEAAWYPWWVREGFFKPEYQARLPQATGETFSMCIPPPNVTGSLHIGHALTVAIQDALVRWHRMRGDQVLWVPGSDHAGIATQAVVEKQLWKERGVRRHELSREAFLREVWQWKEAKGGEICEQLRALGASLDWDRECFTMDVGSSVAVTEAFVRLYKAGLLYRNHQLVNWSCALRSAISDIEVENRPLPGHTQLRLPGCPTPVSFGLLFSVAFPVDGEPDAEVVVGTTRPETLPGDVAVAVHPDDSRYTHLHGRQLRHPLMGQPLPLITDYAVQPHVGTGAVKVTPAHSPADAEMGARHGLSPLNVIAEDGTMTSLCGDWLQGLHRFVAREKIMSVLSEWGLFRGLQNHPMVLPICSRSGDVIEYLLKNQWFVRCQEMGARAAKAVESGALELSPSFHQKNWQHWFSHIGDWCVSRQLWWGHQIPAYLVVEDHAQGEEDCWVVGRSEAEAREVAAELTGRPGAELTLERDPDVLDTWFSSALFPFSALGWPQETPDLARFYPLSLLETGSDLLLFWVGRMVMLGTQLTGQLPFSKVLLHPMVRDRQGRKMSKSLGNVLDPRDIISGVEMQVLQEKLRSGNLDPAELAIVAAAQKKDFPHGIPECGTDALRFTLCSHGVQAGDLHLSVSEVQSCRHFCNKIWNALRFILNALGEKFVPQPAEELSPSSPMDAWILSRLALAAQECERGFLTRELSLVTHALHHFWLHNLCDVYLEAVKPVLWHSPRPLGPPQVLFSCADLGLRLLAPLMPFLAEELWQRLPPRPGCPPAPSISVAPYPSACSLEHWRQPELERRFSRVQEVVQVLRALRATYQLTKARPRVLLQSSEPGDQGLFEAFLEPLGTLGYCGAVGLLPPGAAAPSGWAQAPLSDTAQVYMELQGLVDPQIQLPLLAARRYKLQKQLDSLTARTPSEGEAGTQRQQKLSSLQLELSKLDKAASHLRQLMDEPPAPGSPEL
B5: DAZ Associated Protein 1 (protein, UniProt Q96EP5 1-407)
chain: MNNSGADEIGKLFVGGLDWSTTQETLRSYFSQYGEVVDCVIMKDKTTNQSRGFGFVKFKDPNCVGTVLASRPHTLDGRNIDPKPCTPRGMQPERTRPKEGWQKGPRSDNSKSNKIFVGGIPHNCGETELREYFKKFGVVTEVVMIYDAEKQRPRGFGFITFEDEQSVDQAVNMHFHDIMGKKVEVKRAEPRDSKSQAPGQPGASQWGSRVVPNAANGWAGQPPPTWQQGYGPQGMWVPAGQAIGGYGPPPAGRGAPPPPPPFTSYIVSTPPGGFPPPQGFPQGYGAPPQFSFGYGPPPPPPDQFAPPGVPPPPATPGAAPLAFPPPPSQAAPDMSKPPTAQPDFPYGQYAGYGQDLSGFGQGFSDPSQQPPSYGGPSVPGSGGPPAGGSGFGRGQNHNVQGFHPYRR
B6: Peflin (protein, UniProt Q9UBV8 1-284)
chain: MASYPYRQGCPGAAGQAPGAPPGSYYPGPPNSGGQYGSGLPPGGGYGGPAPGGPYGPPAGGGPYGHPNPGMFPSGTPGGPYGGAAPGGPYGQPPPSSYGAQQPGLYGQGGAPPNVDPEAYSWFQSVDSDHSGYISMKELKQALVNCNWSSFNDETCLMMINMFDKTKSGRIDVYGFSALWKFIQQWKNLFQQYDRDRSGSISYTELQQALSQMGYNLSPQFTQLLVSRYCPRSANPAMQLDRFIQVCTQLQVLTEAFREKDTAVQGNIRLSFEDFVTMTASRML
B7: Secretory Carrier Membrane Protein 3 (protein, UniProt O14828 1-347)
chain: MAQSRDGGNPFAEPSELDNPFQDPAVIQHRPSRQYATLDVYNPFETREPPPAYEPPAPAPLPPPSAPSLQPSRKLSPTEPKNYGSYSTQASAAAATAELLKKQEELNRKAEELDRRERELQHAALGGTATRQNNWPPLPSFCPVQPCFFQDISMEIPQEFQKTVSTMYYLWMCSTLALLLNFLACLASFCVETNNGAGFGLSILWVLLFTPCSFVCWYRPMYKAFRSDSSFNFFVFFFIFFVQDVLFVLQAIGIPGWGFSGWISALVVPKGNTAVSVLMLLVALLFTGIAVLGIVMLKRIHSLYRRTGASFQKAQQEFAAGVFSNPAVRTAAANAAAGAAENAFRAP
B8: TATA element modulatory factor 1 (protein, UniProt P82094 1-1093)
chain: MSWFNASQLSSFAKQALSQAQKSIDRVLDIQEEEPSIWAETIPYGEPGISSPVSGGWDTSTWGLKSNTEPQSPPIASPKAITKPVRRTVVDESENFFSAFLSPTDVQTIQKSPVVSKPPAKSQRPEEEVKSSLHESLHIGQSRTPETTESQVKDSSLCVSGETLAAGTSSPKTEGKHEETVNKESDMKVPTVSLKVSESVIDVKTTMESISNTSTQSLTAETKDIALEPKEQKHEDRQSNTPSPPVSTFSSGTSTTSDIEVLDHESVISESSASSRQETTDSKSSLHLMQTSFQLLSASACPEYNRLDDFQKLTESCCSSDAFERIDSFSVQSLDSRSVSEINSDDELSGKGYALVPIIVNSSTPKSKTVESAEGKSEEVNETLVIPTEEAEMEESGRSATPVNCEQPDILVSSTPINEGQTVLDKVAEQCEPAESQPEALSEKEDVCKTVEFLNEKLEKREAQLLSLSKEKALLEEAFDNLKDEMFRVKEESSSISSLKDEFTQRIAEAEKKVQLACKERDAAKKEIKNIKEELATRLNSSETADLLKEKDEQIRGLMEEGEKLSKQQLHNSNIIKKLRAKDKENENMVAKLNKKVKELEEELQHLKQVLDGKEEVEKQHRENIKKLNSMVERQEKDLGRLQVDMDELEEKNRSIQAALDSAYKELTDLHKANAAKDSEAQEAALSREMKAKEELSAALEKAQEEARQQQETLAIQVGDLRLALQRTEQAAARKEDYLRHEIGELQQRLQEAENRNQELSQSVSSTTRPLLRQIENLQATLGSQTSSWEKLEKNLSDRLGESQTLLAAAVERERAATEELLANKIQMSSMESQNSLLRQENSRFQAQLESEKNRLCKLEDENNRYQVELENLKDEYVRTLEETRKEKTLLNSQLEMERMKVEQERKKAIFTQETIKEKERKPFSVSSTPTMSRSSSISGVDMAGLQTSFLSQDESHDHSFGPMPISANGSNLYDAVRMGAGSSIIENLQSQLKLREGEITHLQLEIGNLEKTRSIMAEELVKLTNQNDELEEKVKEIPKLRTQLRDLDQRYNTILQMYGEKAEEAEELRLDLEDVKNMYKTQIDELLRQSLS

molecular target: T1, SFB-tagged WWOX (WW domain-containing oxidoreductase) (human); assay: affinity purification with mass spectrometry; tandem affinity purification from lysate (NETN buffer) of HEK293T cells stably expressing C-terminally SFB-tagged WWOX: streptavidin beads, elution with 2 mg/ml biotin, then S protein beads; LC-MS/MS; two replicates; hits filtered by MUSE interaction score and CRAPome frequency

Row | binding | Molecule
1 | binds | Puromycin-Sensitive Aminopeptidase (from UniProt P55786 1-919)
2 | binds | Cytoplasmic FMR1-interacting protein 1 (from UniProt Q7L576 1-1253)
3 | binds | ALDH3A2 (from UniProt P51648 1-485)
4 | binds | Glutamine-fructose-6-phosphate aminotransferase 1 (from UniProt Q06210 1-699)
5 | binds | Disheveled 2 (from UniProt O14641 1-736)
6 | binds | TAR DNA-binding protein 43 (from UniProt Q13148 1-414)
7 | binds | Endoplasmic reticulum calcium ATPase 1 (from UniProt O14983 1-1001)
8 | binds | Dynamin 1 Like protein (from UniProt O00429 1-736)
9 | binds | pyruvate dehydrogenase kinase 3 (human (endogenous in HEK293T))
10 | binds | Stress Induced Phosphoprotein 1 (from UniProt P31948 1-543)
11 | binds | Trifunctional enzyme subunit alpha, mitochondrial (from UniProt P40939 37-763)
12 | binds | Ubiquitin carboxyl-terminal hydrolase 24 (from UniProt Q9UPU5 1-2620)
13 | binds | B1
14 | binds | B2
15 | binds | B3
16 | binds | B4
17 | binds | B5
18 | binds | B6
19 | binds | B7
20 | binds | B8
